Paper doi:10.1101/2024.06.07.597857
These are yes or no findings as the source states them, for the method shown. Binding seen in cells or lysates may run through a third protein. Here binding means that the protein was enriched with, or labelled near, the bait; the list need not be complete.

Sequences of proteins named here, by UniProt entry; tags and fusion partners are left off.
UniProt P35222: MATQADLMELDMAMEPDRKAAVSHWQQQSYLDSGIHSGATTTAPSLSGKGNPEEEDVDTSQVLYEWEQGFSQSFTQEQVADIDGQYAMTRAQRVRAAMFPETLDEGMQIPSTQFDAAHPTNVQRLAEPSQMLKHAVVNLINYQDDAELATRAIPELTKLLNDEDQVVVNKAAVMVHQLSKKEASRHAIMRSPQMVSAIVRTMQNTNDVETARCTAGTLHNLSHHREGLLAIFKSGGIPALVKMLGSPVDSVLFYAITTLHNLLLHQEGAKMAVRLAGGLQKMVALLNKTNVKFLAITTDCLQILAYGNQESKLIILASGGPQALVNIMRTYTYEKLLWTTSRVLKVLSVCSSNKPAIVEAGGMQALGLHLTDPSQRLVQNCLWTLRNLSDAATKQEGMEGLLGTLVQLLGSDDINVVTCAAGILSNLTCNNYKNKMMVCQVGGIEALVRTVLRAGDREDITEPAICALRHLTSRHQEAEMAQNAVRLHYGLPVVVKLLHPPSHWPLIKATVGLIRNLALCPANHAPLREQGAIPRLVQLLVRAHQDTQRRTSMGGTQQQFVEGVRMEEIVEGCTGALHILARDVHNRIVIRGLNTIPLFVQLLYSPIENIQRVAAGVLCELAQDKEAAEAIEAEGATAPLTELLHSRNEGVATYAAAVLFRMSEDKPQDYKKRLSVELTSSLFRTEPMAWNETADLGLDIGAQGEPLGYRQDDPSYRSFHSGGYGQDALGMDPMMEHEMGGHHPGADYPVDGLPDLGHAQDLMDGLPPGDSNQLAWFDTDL
UniProt Q7Z4V5: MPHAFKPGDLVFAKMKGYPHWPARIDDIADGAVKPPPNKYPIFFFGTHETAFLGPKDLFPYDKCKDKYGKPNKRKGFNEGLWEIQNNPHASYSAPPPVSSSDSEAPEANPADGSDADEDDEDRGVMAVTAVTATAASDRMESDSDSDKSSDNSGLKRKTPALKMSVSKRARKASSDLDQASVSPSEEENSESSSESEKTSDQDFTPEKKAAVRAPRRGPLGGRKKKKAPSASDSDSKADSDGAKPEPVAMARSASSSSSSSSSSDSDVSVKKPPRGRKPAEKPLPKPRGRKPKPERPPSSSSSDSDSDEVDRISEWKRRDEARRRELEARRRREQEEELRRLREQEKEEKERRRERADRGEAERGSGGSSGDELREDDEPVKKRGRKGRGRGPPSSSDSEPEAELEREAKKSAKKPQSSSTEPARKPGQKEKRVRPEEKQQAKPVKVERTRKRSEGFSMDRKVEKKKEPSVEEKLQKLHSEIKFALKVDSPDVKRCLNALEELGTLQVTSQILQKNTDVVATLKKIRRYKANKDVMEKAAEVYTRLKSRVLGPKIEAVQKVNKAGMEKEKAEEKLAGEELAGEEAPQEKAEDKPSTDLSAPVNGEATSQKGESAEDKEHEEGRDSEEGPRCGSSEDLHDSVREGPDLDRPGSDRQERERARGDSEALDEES

Target: β-catenin (human (endogenous in ovarian carcinoma cells)) (UniProt P35222)
Assay: affinity purification with mass spectrometry

In the case of “hepatoma-derived growth factor related protein 2 (HRP2) (from UniProt Q7Z4V5 1-671)”, the binding is reported as “binds”.
